Assay results taken from patent US20260167739A1.
No constants are given. Whether binding was seen depends on the method and setting. Some binding calls cover weakened binding; strength is not graded here.

T1: 5T4 on SK-OV-3 cells (ATCC, CAT #HTB-79) (UniProt Q13641)
T1 sequence (looked up): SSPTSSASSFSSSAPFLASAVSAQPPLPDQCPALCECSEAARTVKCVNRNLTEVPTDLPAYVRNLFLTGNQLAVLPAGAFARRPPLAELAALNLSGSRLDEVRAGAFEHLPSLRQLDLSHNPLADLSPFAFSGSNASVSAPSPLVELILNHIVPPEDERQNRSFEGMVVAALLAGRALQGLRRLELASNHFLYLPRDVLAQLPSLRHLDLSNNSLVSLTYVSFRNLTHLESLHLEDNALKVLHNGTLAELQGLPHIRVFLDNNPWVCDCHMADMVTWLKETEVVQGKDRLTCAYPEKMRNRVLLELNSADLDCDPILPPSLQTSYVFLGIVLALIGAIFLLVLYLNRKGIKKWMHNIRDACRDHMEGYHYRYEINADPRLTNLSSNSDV


These binders were tested against T1, 5T4 on SK-OV-3 cells (ATCC, CAT #HTB-79) (assay: flow cytometry on SK-OV-3 cells).

| binding | Binder |
| --- | --- |
| binds | L3D5-C (antibody, V domains shown) VH: GVQLQQSGPELVKPGASVKISCKASGYTFTDFYMNWVKQSHGKSLEWIGDINPNNGVTTYNQKFKDKATLTVDKSSSTAYMELRSLTSEDSAVYYCATGAIHYGYDGYFDVWGAGTTVTVSS VL: DIVMTQSPATLSVTPGDRVSLSCRASQSISDYLHWYQQKSHESPRLLIKYASQSISGIPSRFSGSGSGSDFTLSINSVEPEDVGVYYCQNGHSFPLTFGAGTKLELK |
| binds | L1H7-C (antibody, V domains shown) VH: QVQLQQSGPELVKPGASVKISCKASGYAFSSSWMNWVKQRPGKGLEWIGRIYPGNGNTNYNGKFKGKATLTADKSSSTAYMQLNSLTSEDSAVYFCASRFAYWGQGTLVAVSA VL: DIVLTQSPASLAVSLGQRATISCRASKSVSTSGYSYMHWYQQKPGQPPKLLIYLASNLESGVPARFSGSGSGTDFTLNIHPVEEEDAATYYCQHSRELRTFGGGTKLEIK |
| binds | L1F2-C (antibody, V domains shown) VH: QVHLQQSGAELVRPGTSVKVSCKASGYAFTNYVIEWVKQRPGQGLEWIGVINPGSGGTNYNENFKGKATLTADKSSSTAYMQLSSLTSEDSAVYFCARGTVELYAMDYWGQGTSVTVSS VL: DIQMTQTTSSLSASLGDRVTISCRASQDISYYLNWYQQKPDGTVKLLISYTSRLHSGVPSRFSGSGSGTDYSLTISNLEQEDIATYFCQQDIKHPYTFGGGTELEIK |
| binds | L3D5-H1L1 (antibody, V domains shown) VH: QVQMQESGPGLVKPSETLSLSCTASGYTFTDFYMNWVRQSAGKGLEWIGDINPNNGVTTYNQKFKDRASLSVDKSRNWASLRLASVTAADTAVYYCATGAIHYGYDGYFDVWGPGVQVTVSS VL: EIVMTQSPDTLSVSPGETVTLSCRASQSISDYLHWYQQKPGQSPRLLIKYASQSISAFPARFVGSGSGSEFTLTINNMQSEDVAVYYCQNGHSFPLTFGQGTKVDIK |
| binds | L2B11-C (antibody, V domains shown) VH: EVKLVESEGGLVQPGSSMKLSCTASGFTFSDYYMAWVRQVPEKGLEWVGNINYDGSRTYYLDSLKSRFIISRDNGKNILYLQMSSLKSEDTATYYCAREGDNYGNSHYAMDYWGQGTSVTVSS VL: DVLMTQTPLSLPVSLGDQASISCRSSQSFVHSNGNTYLEWYLQKPGQSPKLLIYKVSNRFSGVPDRFTGSGSGTDFTLKISRVEAEDLGVYYCFQGSHVPLTFGAGTRLELK |
| binds | S2F4-C (antibody, V domains shown) VH: EVQLVESGGGLVKPGGSLKLSCAASGFTFSDYGMHWVRQAPEKGLEWIAYISFGSSTIYYADTVKGRFTISRDNAKNTLFLQMTSLRSEDTAMYYCARTHGYYRSWFAYWGQGTLVTVSA VL: DIVLTQSPASLAVSLGQRATISCRASQSVSTSSYSYMNWYQQKPGQPPKLLIKYASNLESGVPARFSGSGSGTDFTLNIHPVEEEDTATYYCQHSWEIPLTFGAGTKLELK |
| binds | S3C7-C (antibody, V domains shown) VH: EVKLVESGGGLVNTGGSLKLSCAASGFNFSHYYMYWVRQTPEKRLEWVAYIGNSGGSTYNPDTVKGRFTISRDNAKNTLYLQMSRLKSEDTAIYYCARQNYYSGSFYFDSWGQGTTITVSS VL: NIVLTQSPTSMSMSVGERVTLSCKASENVGTYVSWYQQKPEQSPKLLIYGKSNRYTGVPDRFTGSGSAPDFTLTISSVQAEDLADYYCGQSYSFPFTFGTGTKLEIK |
| binds | L3F10-C (antibody, V domains shown) VH: EVKLVESGGGLVNTGGSLKLSCAASGFTFSDYFMYWVRQTPDKRLEWVAYISNSGGNTYYPDTVKGRFTISRDNAKNTLYLQMSRLKSEDTAMYFCTRPRPYGGYYAGIYYAMDYWGQGTSVTVSS VL: DIQMTQTTSSLSASLGDRVTISCRASQDISNYLNWYQQKPDGTVKLLIYYTSRLHSGVPSRFSGSGSGTDYSLTISNLEPEDIATYYCQQYSKLPLTFGAGTKLELK |
| binds | L3E1-C (antibody, V domains shown) VH: QVQLQQFGAELVKPGAAVKMSCKASGYTFTSYWITWVKQRPGQGLDWIGDIYPGGGSTNYHEKFKSKATLTVDTSSSTAYMQLSSLTSEDSAVYYCARGLRDFDYWGQGTTITVSS VL: DIQMTQTASSLSASLGDRVTISCRASQHINNYLNWYQQKPDGTVKLLIYSTSRLHSGVPSRFSGSGSGTDFSLTISNLEPEDIATYYCQQYSKLPRTFGGGTKLEIK |
| binds | L1D8-CR11-C (antibody, V domains shown) VH: QVQLQQSGAELMKPGASLKLSCKATGYTFTGYWIEWVKQRPGHGLEWIGEILPGRSSTNYNERFKGKAIFTADTSSNTAYMQLSSLTTEDSAIYYCARGRRDFDYWGQGTTITVSS VL: SIVMTQTPKFLPVSAGDRVTMTCKASQSVGNNVAWYQQKPGQSPKVLIYDASNRYTGVPDRFTGSGSGTDFTFTISSVQVEDLAVYFCQQYYSSPPTFGAGTKLELK |
| binds | L1D8-CR21-C (antibody, V domains shown) VH: QVQLQQSGAELMKPGASLKLSCKATGYTFTGSWIEWVKQRPGHGLEWIGEILPGRSSTNYNERFKGKAIFTADTSSNTAYMQLSSLTTEDSAIYYCARGRRDFDYWGQGTTITVSS VL: SIVMTQTPKFLPVSAGDRVTMTCKASQSVGNNVAWYQQKPGQSPKVLIYDASNRYTGVPDRFTGSGSGTDFTFTISSVQVEDLAVYFCQQYYSSPPTFGAGTKLELK |
